Reference: PubChem BioAssay AID1508600 (Functional Genomics Laboratory (NCATS/FGL), 2020)
The campaign covered roughly 53,000 sequences. About 3,700 (7%) were called active.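 How the source made its calls: active means gene knockdowns whose robust z-score for IL-1 alpha signal is at least 2 or at most -2, so actives lie on both sides; inactive means the rest.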 The list shows a part of the results.

Assay: Components of the Cytosolic LPS Sensing Pathway: Gene Identification via Genome-wide siRNA Screen;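 further: robust z of the log signal after scaling to non-targeting control siRNA wells of the plate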
Details: RAW264.7 macrophages, IL-1a HTRF, actives lie on both sides, screened at 100 nM (by protocol), cells primed 5 h with Pam3CSK4 first
How it was run: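 Knockdown: 100 nM siRNA, 48h, RAW264.7. Stimulation: Pam3CSK4 5 h, then LipidA via TransIT-TKO 24 h. Output: supernatant IL-1a HTRF, negative-control-normalized, log robust z-score; viability by CellTiter-Glo.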

| Sequence | z-score |
| --- | --- |
| GGACUUCAGCAAUUCCUGUTT against Stpg1 | inactive: -0.244 |
| GGCCUUCCUUUGACUUUUUTT against Cnst | inactive: -0.81 |
| GCUGACGACGCGGCCUUUCTT against Pth2 | inactive: -0.444 |
| CGAGACCUUUAUCUUGGAGTT against Unc13d | inactive: -0.908 |
| CCUCUACUCAAGUUUACUUTT against Casq2 | inactive: 0.417 |
| GGAGAAUGCAAUAUCAACUTT against Osbpl9 | inactive: -0.0872 |
| GGAUUUGUUGGAAAUUGGATT against Anks1b | inactive: 0.132 |
| GGUUUCAGGCAUUAUCACATT against Tec | inactive: -0.812 |
| CCUUUCUCCUGCUAUUUUATT against Tspyl1 | inactive: -0.1 |
| GGCCAAAUCAACCAACAGCTT against Rasgrp1 | inactive: -0.551 |
| GGCAGUAGAGUCCAUCCAGTT against Maea | inactive: 0.85 |
| GGAAAUGCCAUCGUCAUUUTT against Gpr1 | active: 2.66 |
| GGCCAUUUCUAUGAAAUUATT against Olfr1016 | active: -2 |
| GGUGAGAGGCAGCUCAAGATT against Rbm41 | inactive: -0.782 |
| GGAUGUCUAACCCAAAUAGTT against Ly6e | active: 2.74 |
| GGUGAACUUGAAGAAGCCUTT against Ero1a | inactive: -0.789 |
| GGCGAAAAGACCAGUUAUGTT against Man2c1 | active: 2.31 |
| GAAUAUUCAAGCAUUACUCTT against Olfr1302 | inactive: 0.291 |
| GCUAUGAAGUUCAAAGGUCTT against Arf4 | inactive: -0.556 |
| CGGGAUAGCUGUCCUGUUATT against Mrps14 | inactive: 0.127 |
| CGCAGAAGCUUAGCCAUCATT against Cog6 | inactive: 0.242 |
| GGACCUUAAAUUUAGAUGGTT against Cept1 | inactive: -1.8 |

| Sequence | z-score |
| --- | --- |
| GGCAUCAAGUCCAUUUUUGTT against Slc12a4 | inactive: 0.108 |
| GGAGGAGAAAUGGAUCACATT against H2ax | inactive: -1.15 |
| CGAGAUACUCAAUAUGUGGTT against Sumf2 | inactive: -0.433 |
| CCAGAUUCGAAUAUCUAAGTT against Mrps30 | inactive: 0.935 |
| GGAGUCUAAAGGAAAUGUATT against Slc22a21 | inactive: 0.538 |
| GGCCAUGCCUUUGUAUGCUTT against Tbc1d25 | inactive: -0.155 |
| GGAAGUCUAAACAAAGCAATT against Ttc14 | inactive: -1.73 |
| GGAAUUAAUGGUGAAGUAUTT against Pcdhb19 | inactive: -0.402 |
| GUGACUCCAGUCGUGUCUATT against Bpifa5 | inactive: -0.972 |
| GGCAUUCUCCCUUUGGUGATT against Armc5 | inactive: 0.664 |
| GGAGUUUCUUCAGUUCCUUTT against Dld | inactive: 0.87 |
| CCAGUUAAGCCAAACUAUGTT against Wdr5 | active: -2.21 |
| GGAGAUUGCCCUCUAUGAGTT against Prom1 | inactive: -1.11 |
| GGAGGAUGCUGACAAGGAATT against Gnat2 | inactive: -0.321 |
| CCAAUUCUACAAUCCGACATT against Tmc5 | inactive: 1.2 |
| GUAUUUUACAUAAACAGGGTT against Vmn1r21 | inactive: -0.856 |
| GGAAAACUGCGUUUGGAAATT against Neil3 | inactive: 0.387 |
| GGAGCUGACGUGCUACUUATT against Speg | active: 2.6 |
| GGCGGAAUACCCAAAAAUATT against Cdkal1 | inactive: 0.193 |
| GCCUAUGAUUUACUGGAUCTT against Oas1b | inactive: 0.576 |
| GGUGCGUAUAGCUUUCCGATT against Fbxo46 | inactive: -0.866 |
| CCAUUUGAAGGCAAAACAUTT against Zmym6 | inactive: -1.87 |

Four records picked at random from those above, as already listed:

| Sequence | z-score |
| --- | --- |
| GGCAUUCUCCCUUUGGUGATT against Armc5 | inactive: 0.664 |
| GGCAUCAAGUCCAUUUUUGTT against Slc12a4 | inactive: 0.108 |
| GGAGGAUGCUGACAAGGAATT against Gnat2 | inactive: -0.321 |
| GGUGCGUAUAGCUUUCCGATT against Fbxo46 | inactive: -0.866 |

Remaining list, next part.

| Sequence | z-score |
| --- | --- |
| GGAGAUCGAACUCAGCUCATT against Ciita | inactive: -1.81 |
| GUUACUGCGUGGACUGUGUTT against C730034F03Rik | inactive: -0.0785 |
| GGCACACAUCAUGUCUAAATT against Plin1 | inactive: 0.324 |
| GGCAACACUGUGGCUAAGUTT against Ankrd13d | active: 2.74 |
| CCUCAAUCGGACCUGUAUUTT against Dstn | inactive: -1.44 |
| GAGAAACUCUGUGAAUAUATT against Zfp97 | inactive: -0.451 |
| GGAGAAGACAGCAAAGUACTT against Plpp3 | inactive: -0.885 |
| GGAAUUUGGACAAAUUGAATT against Scaf8 | inactive: -1.21 |
| CCAGCAGCCUUCUAACUAUTT against Hnrnpa2b1 | active: 2.14 |
| GGCCCAGUCCGAUAUUCUATT against Phxr4 | inactive: -0.797 |
| GGAUCCAUAUGCUAAUCUATT against Patl1 | inactive: 0.783 |
| GGAAAUUUACUCAAGAAGCTT against Trpc4ap | inactive: 0.463 |
| CGUGAGGGUCAACUUCUUCTT against Derl3 | inactive: -0.128 |
| GCUGGUCCUAUCUGUGCUUTT against Olfr1099 | inactive: 0.24 |
| GGCUCAACCAAGAAAGGCUTT against 4930591A17Rik | inactive: -1.28 |
| GGAGAACAUUCAGGUGACATT against Pdgfd | inactive: -0.625 |
| CCCAAAGGGUCAAGAUAAUTT against Hmgcr | inactive: -1.5 |
| GGUCUCAGACACCUGACUCTT against Opa3 | inactive: 1.53 |
| GGUUGAACAUAAGCACAAUTT against Cdkn2aip | inactive: -0.42 |
| CCUAACAUUACUGAUGAUUTT against Ice2 | inactive: -0.641 |
| CGAAAGGUAGUGCUUUCCATT against Hipk3 | inactive: 0.0532 |
| GGUUUGAUGACAAAUACACTT against Spcs2 | inactive: 1.6 |

| Sequence | z-score |
| --- | --- |
| GGGUGUCAUAUCACAUAUGTT against Dpt | inactive: -0.205 |
| GGUUCUGGAAAUGGAGACUTT against Cenpp | inactive: 0.0385 |
| GGACCCAAAACUACAGCCUTT against Olfr850 | inactive: 0.924 |
| GGAUUACCACAAAUCUGAATT against Ccdc7a | inactive: -0.793 |
| CCAGUAGAAAGAAUCCAGATT against Gm128 | inactive: 0.0855 |
| CCUCCACUCCUAAUGAGAUTT against Cideb | inactive: 0.389 |
| GGCAUCUUCAAAUGACAUATT against Cic | inactive: -1.32 |
| GGAUCCUUCGAAUCCUGAATT against Cst11 | inactive: -0.372 |
| GGCUUACCUGGUCUACUCCTT against Wnt8b | inactive: -0.95 |
| CGAAGAUUAAUUUUGCUCATT against Lrrtm2 | inactive: 0.316 |
| GGAACAAGAACUUUCUAAGTT against Golim4 | inactive: 0.83 |
| GGCAAAUGUAAAGUUAGGUTT against Zfp24 | inactive: 0.768 |
| GGACCGUGUCUCUGGAAAATT against Gpx8 | inactive: -0.00687 |
| CCCAUCUCGAAUGAAAGCCTT against Clec3a | inactive: -1.36 |
| CGGGUUGAAAGCUCAGUAATT against Amer3 | inactive: -1.63 |
| GGACACAGACAUCCUCUUGTT against Sult5a1 | inactive: 1.04 |
| GCUUACCUGCUGUCUUAAUTT against F630003A18Rik | inactive: 0.42 |
| GCGCAUUCUGCAUCAUGCUTT against Chil3 | inactive: -0.0254 |
| GCUGCUCGAUUGCUUUCCATT against 4930429B21Rik | inactive: 0.411 |
| GCCCAAAUAGAGGAGGCUUTT against Aqp1 | inactive: -0.691 |
| GGUGGUACAGGUCUUCUCCTT against Ap1m1 | inactive: -1.32 |
| CCCAUCCAUACAAAAAUGATT against Polm | inactive: -1.73 |

| Sequence | z-score |
| --- | --- |
| CGUAAUCCUGACUUUUUGATT against Adam9 | inactive: 1.39 |
| GCAAUGGUCCCACUGUCAGTT against Nrip1 | inactive: -0.356 |
| GCAGUAGCCGGAAGAUAACTT against Itln1 | inactive: 1.34 |
| GGAAACAAUACACCAAAUGTT against Bmt2 | inactive: 1.47 |
| GGCAUACUGGUUAAUCUCATT against Arl6 | inactive: -0.306 |
| GGGCCUUUAGUCCUCAAAGTT against Psmg3 | inactive: 0.387 |
| GGUGUUUGAGAUCAGCUGCTT against Trib2 | inactive: 0.0959 |
| GGAUGAAACUUUCAGUUGCTT against Cenph | inactive: 0.381 |
| GGAGAAAGUUUUGGAAAAATT against Slc24a5 | inactive: -0.622 |
| CGAUUCUGUAUCCAGUUGGTT against Olfr488 | inactive: -0.281 |
| GCUUCUAAAAGAGUUGACATT against Mgat4a | inactive: -0.0407 |
| GGCACAUGGAGUGGACAAGTT against Blvrb | active: 3.2 |
| CCAUGUCUGUAUCCGCAUUTT against 1700001J03Rik | inactive: 1.38 |
| GUACACAAGCCCUGUUUACTT against Hoxa6 | inactive: -0.89 |
| GGAAACAGAAGGAAUACUUTT against Tbc1d22a | inactive: -0.333 |
| CCACUUAUGGGCCUACAAATT against Nipsnap1 | inactive: 0.826 |
| CGGCAAGUAUGAUCUGGACTT against Eno3 | inactive: 1.69 |
| GCCGCUUAUAUGUAUCGCUTT against Adipoq | active: 2.54 |
| GGUUUAGGCAACUAAGUUGTT against Stat5a | inactive: 0.426 |

As entered above.
In z-score, GGAACAAGAACUUUCUAAGTT against Golim4 is listed with inactive: 0.83
In z-score, CCAGUUAAGCCAAACUAUGTT against Wdr5 is listed with active: -2.21
In z-score, GGUGCGUAUAGCUUUCCGATT against Fbxo46 is listed with inactive: -0.866
In z-score, GGAUGUCUAACCCAAAUAGTT against Ly6e is listed with active: 2.74
